PubChem BioAssay AID445 (National Center for Advancing Translational Sciences (NCATS), 2006)
The other results are listed elsewhere or left out. The main result of the screen is listed elsewhere. These columns were measured beside it and carry no call. Compounds called inactive in the main read-out are mostly missing here. The note in brackets gives the kind of curve behind each potency; many fits are weak.

Assay: IkB Signaling
Conditions: ABC-DLBCL IkBa-CBG/CBR dual luciferase ratio (green luciferase fused to IkBa over red control in OCI-Ly3 lymphoma cells), 4 h; measured here: control luc red channel unless noted
Summary of the method: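 In this assay, an IκBα–CBG68 fusion accumulates when IKK-driven degradation is blocked; native CBR normalizes for cell number. OCI-Ly3 cells were treated 4 h with compound and doxycycline, then green and red light read after Chroma-Glo addition.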
In the case of `CC(C)(C)NC(=O)NC(=O)COc1ccccc1C#N`, the AC50 is reported as 0.126 µM [falling, full curve].
In the case of `O=C(CCn1ccc2cc(S(=O)(=O)N3CCCC3)ccc21)NCc1ccccc1Br`, the AC50 is reported as 25.1 µM [falling, single point].
With `CCC(C)(C)n1nnnc1CN(Cc1ccco1)Cc1cc2cc3c(cc2[nH]c1=O)OCO3` the AC50 was 31.6 µM [falling, partial curve].
With `Cc1cccc(C2CC(=O)Nc3cc4c(cc32)OCO4)c1` (centres undefined) the AC50 was 20 µM [falling, partial curve].
In the case of `Cc1cc2ccccc2n1CCNC(=O)c1ccc(Br)cc1`, the AC50 is reported as 39.8 µM [falling, partial curve].
In the case of `CCc1ccc(NC(=O)CN2C(=O)C3(SCC(=O)N3c3ccc(F)c(F)c3)c3ccccc32)cc1` (centres undefined), the AC50 is reported as 15.8 µM [falling, partial curve].
With `CC(C)c1ccc(OCC(=O)N(Cc2cccs2)C2CCS(=O)(=O)C2)cc1` (centres undefined) the AC50 was 31.6 µM [falling, single point].
For `Cc1csc(NC(=O)c2ccccc2O)n1`, the AC50 was 6.31 µM [falling, partial curve].
For `Cc1c(C(=O)Nc2ccc(F)cc2)oc2ccc(S(=O)(=O)N3CCCC3)cc12`, the AC50 was 3.16 µM [falling, full curve, poor fit].
With `COc1ccccc1OCC(=O)Nc1oc(-c2ccccc2)c(-c2ccccc2)c1C#N` the AC50 was 10 µM [falling, partial curve].
In the case of `CCC(C(=O)N1CCN(c2ccccc2)CC1)n1c(C)c2cnn(-c3ccccc3)c(=O)c2c1C` (centres undefined), the AC50 is reported as 15.8 µM [falling, partial curve].
With `Cc1nnc(N2CCC(C(=O)NCCC(C)C)CC2)c2nn(-c3ccc(Cl)cc3)c(C)c12` the AC50 was 7.94 µM [falling, partial curve].
In the case of `COC(=O)c1ccc(NC(=O)CN2C(=O)CC(c3ccccc3)Sc3ccccc32)cc1` (centres undefined), the AC50 is reported as 0.2 µM [falling, full curve].
In the case of `CSc1ccc(-c2nnc(NC(=O)c3ccc4c(c3)OCCO4)o2)cc1`, the AC50 is reported as 39.8 µM [falling, single point].
With `CC(=O)Nc1ccc(OCC(O)CN2CCN(c3ccc(C)c(Cl)c3)CC2)cc1` (centres undefined) the AC50 was 15.8 µM [falling, partial curve].
With `CCOc1ccc(CNCc2c(C(=O)O)c(C)n(Cc3c(F)cccc3Cl)c2C)cc1OC` the AC50 was 12.6 µM [falling, single point].
With `Cc1ccc(-c2cn3c(n2)sc2cc(C(=O)NCCCc4ccccc4)ccc23)c(C)c1` the AC50 was 25.1 µM [falling, single point].
In the case of `CCOC(=O)c1c(CN2CCOCC2)n(C)c2cc(Br)c(O)c(CN(C)C)c12`, the AC50 is reported as 12.6 µM [falling, partial curve, poor fit].
In the case of `O=C(Nc1ccc2nc(-c3ccc(Br)o3)[nH]c2c1)c1cccs1`, the AC50 is reported as 12.6 µM [falling, partial curve].
For `O=C(Nc1ccccc1)OCCOc1ccccc1`, the AC50 was 12.6 µM [falling, partial curve].
For `CCc1cccc(NC(=O)CN(C)S(=O)(=O)c2ccc3c(c2)CCCN3C(C)=O)c1`, the AC50 was 25.1 µM [rising, partial curve, poor fit].
For `Cc1ccc2oc(=O)n(CCCOc3ccccc3Cl)c2c1`, the AC50 was 39.8 µM [falling, single point].
With `CC(CCc1ccccc1)NC(=O)Cn1c(=O)nc(-c2ccccc2)c2ccccc21` (centres undefined) the AC50 was 12.6 µM [falling, partial curve].
In the case of `CCOC(=O)c1cnc2c(C)c(Cl)ccc2c1Nc1ccc(N2CCOCC2)cc1`, the AC50 is reported as 7.94 µM [falling, partial curve].
In the case of `Cc1ccccc1Nc1c(-c2cccnc2)nc2ccc(Cl)cn12`, the AC50 is reported as 20 µM [falling, single point].
For `COc1ccc(C2=C(Nc3ccc(C)cc3C)c3ccccc3C2=O)cc1`, the AC50 was 31.6 µM [falling, partial curve].
With `Cc1cc(-c2[nH]nc3c2C(c2ccsc2)C(C#N)=C(N)O3)c(C)s1` (centres undefined) the AC50 was 6.31 µM [falling, full curve].
With `O=C(Cn1cnc2c(cnn2-c2ccccc2)c1=O)OCc1ccccc1` the AC50 was 39.8 µM [falling, single point].
With `Cc1ccn2c(=O)cc(COc3cccc(NC(=O)Nc4cccc(Cl)c4C)c3)nc2c1` the AC50 was 5.01 µM [falling, partial curve].
In the case of `COc1ccccc1NC(=O)C1=C(C)Nc2nc3ccccc3n2C1c1cccc(OC)c1OC` (centres undefined), the AC50 is reported as 31.6 µM [falling, single point].
In the case of `Cc1ccc(CNC(=O)c2ccc(CS(=O)Cc3cccc(Cl)c3)o2)cc1` (centres undefined), the AC50 is reported as 15.8 µM [falling, single point].
In the case of `CCC(=O)N1CCN(c2nc(-c3ccccc3)c3c(c2C#N)CCCC3)CC1`, the AC50 is reported as 3.16 µM [falling, partial curve].
With `CCOc1cc(C(=O)NCC(c2ccc(N(C)C)cc2)N2CCOCC2)cc(OCC)c1OCC` (centres undefined) the AC50 was 10 µM [falling, partial curve].
In the case of `Cc1cccc2c1-c1sc(C(=O)N(C)c3cccc(Cl)c3)cc1CO2`, the AC50 is reported as 31.6 µM [falling, single point].
With `CC(C)c1cnc2c(c1SCC(=O)NCc1ccccc1Cl)c(=O)n(C)c(=O)n2C` the AC50 was 5.01 µM [falling, partial curve].
With `O=C(c1ccc2c(c1)N(Cc1cccc(F)c1)C(=O)c1ccccc1S2)N1CCCC1` the AC50 was 2.51 µM [rising, partial curve].
With `CSc1ccc(CCNC(=O)CCc2c(C)nc3ncnn3c2C)cc1` the AC50 was 0.02 µM [falling, full curve, poor fit].
In the case of `COc1cc2c(cc1OC)C(C)N(C(=O)c1cc3n(n1)C(C(F)(F)F)CC(c1ccco1)N3)CC2` (centres undefined), the AC50 is reported as 39.8 µM [falling, single point].
In the case of `Cn1nnnc1SCCNCc1cc(Br)ccc1OCc1ccccc1Cl`, the AC50 is reported as 39.8 µM [falling, single point].
In the case of `Cc1ccc(C(=O)Nc2cccc3cccnc23)cc1Cl`, the AC50 is reported as 0.316 µM [rising, partial curve, poor fit].
With `CCOC(=O)CSc1nc2ccc(NC(=O)c3cccc(F)c3)cc2s1` the AC50 was 20 µM [falling, single point].
For `O=c1c(NCc2cccs2)nccn1-c1ccc(F)cc1`, the AC50 was 12.6 µM [falling, partial curve].
With `COc1cccc(NC(=O)CN(CCc2ccccc2)S(=O)(=O)c2ccc(Cl)cc2)c1` the AC50 was 25.1 µM [falling, single point].
In the case of `CCOc1ccc(NS(=O)(=O)c2ccc3[nH]c4c(c3c2)CCCCC4)cc1`, the AC50 is reported as 31.6 µM [falling, single point].
With `O=C(COCc1cc(-c2ccc(F)cc2)on1)Nc1cc(F)ccc1F` the AC50 was 0.0794 µM [falling, full curve].
With `CCOc1ccccc1NS(=O)(=O)c1ccc2c(c1)oc(=O)n2C` the AC50 was 0.00794 µM [falling, full curve, poor fit].
In the case of `CCc1cc2c(cc3c(=O)n(CCCC(=O)NCc4cccc(Cl)c4)ncn32)s1`, the AC50 is reported as 10 µM [falling, partial curve].
With `COc1ccc(NC(=O)c2oc3ccccc3c2NC(=O)Cc2coc3c(C)c(C)ccc23)cc1` the AC50 was 2.51 µM [falling, full curve].
For `O=C(Nc1ncc(Cc2ccccc2)s1)C1CCCO1` (centres undefined), the AC50 was 10 µM [falling, partial curve].
With `Cc1ccc(S(=O)(=O)c2nc(S(=O)(=O)c3ccccc3)sc2NCCCOC(C)C)cc1` the AC50 was 0.2 µM [rising, full curve, poor fit].
In the case of `COc1ccc(OC)c(CCNC(=O)CS(=O)(=O)Cc2nc(-c3ccccc3C)oc2C)c1`, the AC50 is reported as 12.6 µM [falling, partial curve].
With `O=C(CSc1n[nH]c(-c2ccc(F)cc2)n1)NCCc1ccccc1` the AC50 was 20 µM [falling, single point].
In the case of `N#Cc1cc(Cl)c(N2CCOCC2)cc1C#N`, the AC50 is reported as 12.6 µM [rising, partial curve].
For `COc1cccc(NC(=O)Cn2cc(C(=O)c3ccc(C)cc3)c(=O)c3cc(OC)ccc32)c1`, the AC50 was 15.8 µM [falling, partial curve].
For `CCOC(=O)c1c(Nc2ccc(OC)cc2)nnc(-c2ccccc2)c1-c1ccccc1`, the AC50 was 15.8 µM [falling, partial curve].
With `CCOc1ccc(NC(=O)COc2ccc(S(=O)(=O)NC3CCCCC3)cc2)cc1` the AC50 was 7.94 µM [falling, partial curve].
In the case of `COc1ccc(-c2csc(=Nc3ccccc3)n2CCO)cc1F`, the AC50 is reported as 39.8 µM [falling, single point].
With `Cc1cccn2c(=O)c(C(=O)NCc3cccc(F)c3)cnc12` the AC50 was 12.6 µM [rising, partial curve].
With `CCOc1ccc(CNC(=O)Cc2ccc(NC(=O)N3CCSc4ncccc43)cc2)cc1` the AC50 was 20 µM [falling, single point].
With `Cc1ccc(Cl)cc1Nc1nn2c(=O)c3ccc(C(=O)NCc4ccc(F)cc4)cc3nc2s1` the AC50 was 25.1 µM [falling, single point].
For `COc1ccc(Nc2c(-c3cccc(O)c3)nc3cnccn23)cc1`, the AC50 was 0.01 µM [falling, full curve].
In the case of `CCOC(=O)N1CCc2c(sc3c2c(=O)n(-c2ccc(Cl)cc2)c(=O)n3CC(C)C)C1`, the AC50 is reported as 31.6 µM [falling, single point].
In the case of `O=c1cc(-c2ccc(F)cc2)nc(SCc2nc(-c3ccc(Cl)cc3)no2)[nH]1`, the AC50 is reported as 20 µM [rising, partial curve].
With `C/C(=C\c1ccco1)C1Nc2cccc3cccc(c23)N1` the AC50 was 3.98 µM [rising, partial curve] [measured here: IkB-luc green channel].
